Laboratory results as given in the supplement of paper PMC10849652.
This is one part of the list.

Amino acid sequences for entries named in this document (tags omitted). A change or cut given only in a name is not applied to a line headed by its entry.
UniProt Q5EBL4: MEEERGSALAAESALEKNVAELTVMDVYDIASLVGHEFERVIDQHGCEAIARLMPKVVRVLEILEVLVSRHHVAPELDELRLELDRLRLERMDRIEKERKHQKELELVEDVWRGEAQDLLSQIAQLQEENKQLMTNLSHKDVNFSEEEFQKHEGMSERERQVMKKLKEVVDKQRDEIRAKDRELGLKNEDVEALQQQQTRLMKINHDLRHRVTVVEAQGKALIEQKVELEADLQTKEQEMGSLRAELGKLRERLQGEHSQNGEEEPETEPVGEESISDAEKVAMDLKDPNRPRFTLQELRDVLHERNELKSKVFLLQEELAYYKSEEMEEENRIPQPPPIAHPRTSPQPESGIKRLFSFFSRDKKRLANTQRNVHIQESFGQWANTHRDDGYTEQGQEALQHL
UniProt Q8TEB9: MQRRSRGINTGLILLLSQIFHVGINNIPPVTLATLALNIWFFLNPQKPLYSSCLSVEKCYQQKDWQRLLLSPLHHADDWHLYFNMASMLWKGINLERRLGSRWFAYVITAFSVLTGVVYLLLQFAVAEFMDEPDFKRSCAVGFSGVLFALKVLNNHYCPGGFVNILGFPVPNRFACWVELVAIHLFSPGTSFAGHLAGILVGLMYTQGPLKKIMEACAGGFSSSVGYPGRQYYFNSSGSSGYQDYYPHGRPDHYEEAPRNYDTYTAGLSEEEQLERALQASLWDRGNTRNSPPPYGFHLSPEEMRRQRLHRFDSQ
UniProt Q96E14: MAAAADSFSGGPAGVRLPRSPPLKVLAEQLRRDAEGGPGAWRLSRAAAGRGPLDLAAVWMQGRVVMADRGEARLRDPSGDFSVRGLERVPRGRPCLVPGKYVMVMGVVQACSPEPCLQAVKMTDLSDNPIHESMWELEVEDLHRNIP
UniProt P48380: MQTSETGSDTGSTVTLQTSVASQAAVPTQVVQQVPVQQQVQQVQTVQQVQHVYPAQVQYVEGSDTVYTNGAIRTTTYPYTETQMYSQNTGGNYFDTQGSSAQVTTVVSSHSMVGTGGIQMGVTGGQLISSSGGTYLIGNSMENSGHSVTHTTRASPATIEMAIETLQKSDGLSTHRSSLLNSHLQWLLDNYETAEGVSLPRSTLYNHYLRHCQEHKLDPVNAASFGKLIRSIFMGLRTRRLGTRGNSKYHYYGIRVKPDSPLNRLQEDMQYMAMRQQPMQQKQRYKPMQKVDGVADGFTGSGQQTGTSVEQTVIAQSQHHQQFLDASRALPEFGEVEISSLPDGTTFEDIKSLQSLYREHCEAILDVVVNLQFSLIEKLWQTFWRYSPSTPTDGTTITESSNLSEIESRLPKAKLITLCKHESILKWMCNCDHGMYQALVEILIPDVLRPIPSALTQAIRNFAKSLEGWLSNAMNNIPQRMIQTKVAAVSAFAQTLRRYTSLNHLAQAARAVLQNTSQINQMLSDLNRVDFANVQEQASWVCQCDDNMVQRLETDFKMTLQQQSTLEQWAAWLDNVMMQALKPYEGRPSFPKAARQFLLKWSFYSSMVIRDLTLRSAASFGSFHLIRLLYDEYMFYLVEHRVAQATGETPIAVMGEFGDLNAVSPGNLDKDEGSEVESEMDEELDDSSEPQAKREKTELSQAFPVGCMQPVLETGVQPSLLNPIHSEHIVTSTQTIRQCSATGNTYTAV
UniProt Q6ZS17: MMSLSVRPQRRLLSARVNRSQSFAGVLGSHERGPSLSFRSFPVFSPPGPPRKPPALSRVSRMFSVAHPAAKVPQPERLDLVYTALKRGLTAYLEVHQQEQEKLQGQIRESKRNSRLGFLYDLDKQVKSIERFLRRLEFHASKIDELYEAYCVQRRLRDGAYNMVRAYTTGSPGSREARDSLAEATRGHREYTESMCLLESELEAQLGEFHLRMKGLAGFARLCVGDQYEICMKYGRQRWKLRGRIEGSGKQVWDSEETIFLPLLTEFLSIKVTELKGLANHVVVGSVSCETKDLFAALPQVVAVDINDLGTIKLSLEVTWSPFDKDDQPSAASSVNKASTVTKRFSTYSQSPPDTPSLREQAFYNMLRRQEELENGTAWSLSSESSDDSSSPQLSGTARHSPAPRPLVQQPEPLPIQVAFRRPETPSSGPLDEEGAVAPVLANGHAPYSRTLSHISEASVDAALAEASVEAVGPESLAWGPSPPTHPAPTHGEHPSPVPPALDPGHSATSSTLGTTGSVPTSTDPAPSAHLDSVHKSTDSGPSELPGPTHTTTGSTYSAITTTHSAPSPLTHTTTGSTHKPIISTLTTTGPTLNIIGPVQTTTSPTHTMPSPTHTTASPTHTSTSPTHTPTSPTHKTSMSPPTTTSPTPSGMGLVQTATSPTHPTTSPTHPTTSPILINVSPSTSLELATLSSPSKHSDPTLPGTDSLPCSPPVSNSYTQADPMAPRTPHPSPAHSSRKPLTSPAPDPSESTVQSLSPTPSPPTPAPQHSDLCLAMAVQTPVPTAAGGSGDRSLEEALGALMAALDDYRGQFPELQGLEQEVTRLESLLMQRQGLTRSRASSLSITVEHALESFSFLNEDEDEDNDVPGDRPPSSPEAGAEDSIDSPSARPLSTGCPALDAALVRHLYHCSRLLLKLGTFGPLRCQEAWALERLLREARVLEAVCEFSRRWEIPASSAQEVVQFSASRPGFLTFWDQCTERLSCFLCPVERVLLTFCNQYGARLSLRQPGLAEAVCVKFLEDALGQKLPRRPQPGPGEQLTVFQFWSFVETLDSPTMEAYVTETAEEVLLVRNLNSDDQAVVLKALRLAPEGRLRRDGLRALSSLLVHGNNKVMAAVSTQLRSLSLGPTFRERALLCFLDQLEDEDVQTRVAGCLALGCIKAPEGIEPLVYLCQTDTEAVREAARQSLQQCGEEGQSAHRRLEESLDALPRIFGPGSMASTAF
UniProt Q5VTB9: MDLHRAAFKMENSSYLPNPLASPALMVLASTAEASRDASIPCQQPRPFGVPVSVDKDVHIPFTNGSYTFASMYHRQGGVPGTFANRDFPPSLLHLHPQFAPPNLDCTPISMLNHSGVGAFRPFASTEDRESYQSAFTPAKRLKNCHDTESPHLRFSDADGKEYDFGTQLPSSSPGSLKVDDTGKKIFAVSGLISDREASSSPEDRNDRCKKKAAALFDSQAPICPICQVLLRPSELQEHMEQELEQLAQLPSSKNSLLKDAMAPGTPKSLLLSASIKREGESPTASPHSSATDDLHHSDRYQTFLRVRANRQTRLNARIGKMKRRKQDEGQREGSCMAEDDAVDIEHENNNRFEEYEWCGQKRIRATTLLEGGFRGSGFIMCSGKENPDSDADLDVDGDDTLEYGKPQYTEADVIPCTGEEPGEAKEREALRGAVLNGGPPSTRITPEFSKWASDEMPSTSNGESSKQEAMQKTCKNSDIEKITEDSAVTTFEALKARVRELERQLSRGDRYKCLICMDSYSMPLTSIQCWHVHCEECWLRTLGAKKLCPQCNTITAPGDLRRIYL
UniProt Q9Y580: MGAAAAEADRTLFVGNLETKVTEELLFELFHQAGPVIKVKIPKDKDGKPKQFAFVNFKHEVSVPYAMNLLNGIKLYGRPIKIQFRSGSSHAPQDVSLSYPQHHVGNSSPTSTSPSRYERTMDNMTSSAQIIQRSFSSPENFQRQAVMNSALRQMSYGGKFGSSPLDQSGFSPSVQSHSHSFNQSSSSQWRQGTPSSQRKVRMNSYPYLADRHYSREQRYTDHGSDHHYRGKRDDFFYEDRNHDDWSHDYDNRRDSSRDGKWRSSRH
UniProt Q9Y3C5: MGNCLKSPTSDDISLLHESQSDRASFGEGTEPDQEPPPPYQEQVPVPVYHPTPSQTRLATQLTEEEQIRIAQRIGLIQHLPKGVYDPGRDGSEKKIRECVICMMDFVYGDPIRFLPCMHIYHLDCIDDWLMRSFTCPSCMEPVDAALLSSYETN
UniProt Q8WU17: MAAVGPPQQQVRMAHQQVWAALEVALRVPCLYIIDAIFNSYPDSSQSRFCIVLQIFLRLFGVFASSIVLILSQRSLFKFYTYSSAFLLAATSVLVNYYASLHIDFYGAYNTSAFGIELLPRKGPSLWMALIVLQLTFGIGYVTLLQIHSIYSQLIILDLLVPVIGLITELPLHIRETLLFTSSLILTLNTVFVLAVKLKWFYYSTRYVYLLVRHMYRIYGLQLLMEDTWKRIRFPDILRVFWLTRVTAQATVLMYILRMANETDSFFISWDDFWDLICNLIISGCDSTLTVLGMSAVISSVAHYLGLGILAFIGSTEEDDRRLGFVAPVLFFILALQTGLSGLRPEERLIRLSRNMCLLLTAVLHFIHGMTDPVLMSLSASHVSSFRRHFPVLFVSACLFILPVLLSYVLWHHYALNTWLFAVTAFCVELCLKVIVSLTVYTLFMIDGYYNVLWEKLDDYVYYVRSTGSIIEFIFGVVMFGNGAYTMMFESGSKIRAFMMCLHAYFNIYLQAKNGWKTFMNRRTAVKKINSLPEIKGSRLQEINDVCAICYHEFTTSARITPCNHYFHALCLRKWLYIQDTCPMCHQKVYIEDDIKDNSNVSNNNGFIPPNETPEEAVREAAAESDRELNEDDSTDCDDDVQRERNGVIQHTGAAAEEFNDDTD
UniProt Q86XS8: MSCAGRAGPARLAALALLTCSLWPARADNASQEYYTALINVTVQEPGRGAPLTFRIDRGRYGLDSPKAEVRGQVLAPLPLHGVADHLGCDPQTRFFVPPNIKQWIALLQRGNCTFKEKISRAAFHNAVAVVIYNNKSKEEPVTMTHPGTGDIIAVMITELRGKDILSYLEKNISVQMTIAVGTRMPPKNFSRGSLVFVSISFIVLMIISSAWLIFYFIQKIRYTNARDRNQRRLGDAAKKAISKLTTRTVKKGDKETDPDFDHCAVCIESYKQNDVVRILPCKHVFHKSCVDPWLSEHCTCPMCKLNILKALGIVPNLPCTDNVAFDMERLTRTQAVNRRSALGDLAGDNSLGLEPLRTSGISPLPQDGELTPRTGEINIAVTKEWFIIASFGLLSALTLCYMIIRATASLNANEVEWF
UniProt O43567: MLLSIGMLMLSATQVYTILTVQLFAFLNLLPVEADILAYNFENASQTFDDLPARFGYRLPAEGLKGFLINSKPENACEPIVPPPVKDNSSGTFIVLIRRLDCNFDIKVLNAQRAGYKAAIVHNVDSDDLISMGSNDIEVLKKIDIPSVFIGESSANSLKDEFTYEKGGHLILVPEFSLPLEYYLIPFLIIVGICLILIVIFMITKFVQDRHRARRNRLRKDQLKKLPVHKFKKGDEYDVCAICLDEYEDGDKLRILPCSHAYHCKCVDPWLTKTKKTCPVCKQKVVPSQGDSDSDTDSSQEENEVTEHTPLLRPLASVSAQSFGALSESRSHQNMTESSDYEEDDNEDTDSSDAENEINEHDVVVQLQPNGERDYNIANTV
UniProt Q9HBD1: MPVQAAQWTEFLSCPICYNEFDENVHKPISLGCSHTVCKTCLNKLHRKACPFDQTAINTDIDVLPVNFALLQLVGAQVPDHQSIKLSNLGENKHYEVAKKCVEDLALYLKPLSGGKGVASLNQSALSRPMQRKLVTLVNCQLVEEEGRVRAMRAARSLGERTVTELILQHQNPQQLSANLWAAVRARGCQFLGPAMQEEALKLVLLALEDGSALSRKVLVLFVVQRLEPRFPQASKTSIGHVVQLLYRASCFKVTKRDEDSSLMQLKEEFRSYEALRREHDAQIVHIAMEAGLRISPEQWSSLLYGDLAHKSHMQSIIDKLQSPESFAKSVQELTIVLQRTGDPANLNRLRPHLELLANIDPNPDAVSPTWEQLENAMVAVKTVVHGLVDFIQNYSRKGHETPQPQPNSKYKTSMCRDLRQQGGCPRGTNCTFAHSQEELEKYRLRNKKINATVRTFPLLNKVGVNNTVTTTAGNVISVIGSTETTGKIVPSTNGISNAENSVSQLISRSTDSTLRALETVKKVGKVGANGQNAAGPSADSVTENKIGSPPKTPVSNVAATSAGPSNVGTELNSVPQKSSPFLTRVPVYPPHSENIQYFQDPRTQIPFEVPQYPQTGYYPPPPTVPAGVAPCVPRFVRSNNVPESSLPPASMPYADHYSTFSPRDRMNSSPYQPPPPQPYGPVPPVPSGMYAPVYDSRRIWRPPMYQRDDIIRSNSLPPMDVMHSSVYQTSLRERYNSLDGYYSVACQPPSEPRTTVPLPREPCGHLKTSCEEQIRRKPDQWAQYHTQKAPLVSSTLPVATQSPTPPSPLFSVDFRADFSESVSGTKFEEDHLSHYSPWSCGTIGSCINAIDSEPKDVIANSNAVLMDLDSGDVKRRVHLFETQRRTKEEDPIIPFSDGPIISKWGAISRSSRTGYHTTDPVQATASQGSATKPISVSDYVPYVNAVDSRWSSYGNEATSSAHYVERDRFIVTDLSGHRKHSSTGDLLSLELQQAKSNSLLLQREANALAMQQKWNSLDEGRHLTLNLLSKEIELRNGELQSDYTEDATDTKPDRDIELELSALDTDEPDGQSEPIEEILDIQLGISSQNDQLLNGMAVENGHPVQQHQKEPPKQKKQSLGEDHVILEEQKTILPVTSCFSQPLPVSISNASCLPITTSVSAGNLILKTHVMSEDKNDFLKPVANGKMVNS

Assays:
Assay in all cases: log2 fold change, soluble protein after heating vs DMSO (PISA); higher = thermal stabilisation; K562 cells, 10 uM, 30 min; active = over 0.2 and 3.5 SD of the protein, either way, in both replicates (recomputed)
erlotinib = compound: C#Cc1cccc(Nc2ncnc3cc(OCCOC)c(OCCOC)cc23)c1 [erlotinib]
Procedure, shortened: (§1)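 K562 cells at 2×10^6 cells/mL were given 10 μM compound for 30 min. Aliquots then went through 3 min of heating across 48°C-58°C, were pooled, and were extracted in PBS with 0.5% NP-40 at 4°C, and the supernatant after 21,000xg for 90 min was quantified by TMTpro 16plex LC-MS/MS with channel sums equalised. Thermal stability relative to control samples, from duplicates, is given as log2 fold change.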

[1] = compound: C1=CC(=C(C=C1Cl)C2=NC3=NC=CN=C3C(=N2)NC4=CC=NC=C4)F
Procedure, shortened: as §1

[2] = compound: C1=CC(=CC=C1C2=NC3=C(N2)C=C(C=C3)C(=O)N)OC4=CC=C(C=C4)Cl
Procedure, shortened: as §1

[3] = compound: C1=CC=C(C=C1)C2=NC(=C(N2)C3=CC=NC=C3)C4=CC(=C(C=C4)Cl)O
Procedure, shortened: as §1

[4] = compound: C1CCN(C1)C(=O)NC2=CC=CC(=C2)NC3=NC=C(C(=N3)NCCC4=CN=CN4)Br
Procedure, shortened: as §1

[5] = compound: C1CN(CCC1(CC2=CC=C(C=C2)Cl)N)C3=NC=NC4=C3C=CN4
Procedure, shortened: as §1

[6] = compound: C1=CC2=NC=CN=C2C=C1/C=C/3\C(=O)NC(=O)S3
Procedure, shortened: as §1

[7] = compound: C/C(=N\NC(=O)C1=CC(=CC=C1)S(=O)(=O)N2CCOCC2)/C3=C(C=CC(=C3)Cl)O
Procedure, shortened: as §1

[8] = compound: C1=CC2=C(C=CC(=C2)/C=C\3/C(=O)NC(=NCC4=CC=CS4)S3)N=C1
Procedure, shortened: as §1

[9] = compound: C1=CC=C2C(=C1)C3=NNC4=CC=CC(=C43)C2=O
Procedure, shortened: as §1

Measured: log2 fold change

RILPL1 (UniProt Q5EBL4)
inactive: erlotinib 0.094 | [1] -0.005 | [2] 0.152 | [3] -0.151 | [4] 0.059 | [5] -0.211

RHBDD1 (UniProt Q8TEB9)
inactive: erlotinib 0.039 | [1] 0.037 | [2] 0.029 | [6] 0.083 | [3] 0.006

RNASE7 (UniProt Q9H1E1)
inactive: [7] 0.244 | [8] 0.544 | [9] -0.357

RFXANK (UniProt O14593)
inactive: [1] 0.041

RHOXF2B (UniProt P0C7M4)
inactive: [7] 0.02 | [8] 0.062 | [9] -0.027

RMI2 (UniProt Q96E14)
inactive: [7] -0.174 | [8] 0.129 | [3] 0.306 | [9] 0.13 | [4] -0.075 | [5] -0.081

RFX3 (UniProt P48380)
inactive: erlotinib -0.081 | [2] 0.126 | [6] -0.024

RILPL2 (UniProt Q969X0)
inactive: [1] -0.045

RMDN2 isoform 2 (UniProt Q96LZ7)
inactive: [3] 0.088

RGCC (UniProt Q9H4X1)
inactive: erlotinib 0.295 | [7] 0.048 | [2] 0.108 | [8] 0.184 | [6] -0.052 | [9] -0.125

RNF24 isoform 2 (UniProt Q9Y225)
inactive: erlotinib -0.062 | [1] -0.015 | [2] -0.019 | [6] 0.007 | [3] 0.147

RIC8B isoform 1 (UniProt Q9NVN3)
inactive: erlotinib 0.095 | [1] -0.135 | [2] 0.086

RCL1 (UniProt Q5VZU2)
inactive: [7] -0.186 | [1] -0.246 | [8] 0.379 | [3] -0.04 | [9] 0.23 | [4] 0.163 | [5] -0.023

RIPOR1 isoform 4 (UniProt Q6ZS17)
inactive: [1] -0.064 | [3] -0.19 | [4] 0.093 | [5] -0.133

RFC1 (UniProt P35251)
inactive: [7] -0.309 | [8] -0.039 | [3] 0.233 | [9] 0.02 | [4] 0.079 | [5] -0.109

RNF220 isoform 3 (UniProt Q5VTB9)
inactive: erlotinib -0.109 | [7] -0.021 | [2] 0.229 | [8] -0.05 | [9] -0.055

RNF166 (UniProt Q96A37)
inactive: erlotinib 0.05 | [7] -0.153 | [2] -0.105 | [8] -0.116 | [3] 0.103 | [9] -0.056 | [4] 0.051 | [5] 0.085

RNF169 (UniProt Q8NCN4)
inactive: [4] -0.04 | [5] -0.007

RBM7 (UniProt Q9Y580)
inactive: erlotinib -0.048 | [1] -0.109 | [2] -0.048 | [3] 0.179 | [4] -0.052 | [5] -0.118

RIT1 isoform 3 (UniProt Q92963)
inactive: erlotinib -0.002 | [1] -0.05 | [2] -0.211

RIF1 (UniProt Q5UIP0)
inactive: erlotinib 0.169 | [1] -0.124 | [2] -0.141 | [3] -0.21 | [4] 0.165 | [5] -0.001

RNF11 (UniProt Q9Y3C5)
inactive: [3] 0.085

RNASEL (UniProt Q05823)
inactive: [3] -0.232

RGN (UniProt Q15493)
inactive: [7] 0.094 | [8] -0.302 | [9] -0.002 | [4] 0.33 | [5] 0.144

RBM6 (UniProt P78332)
inactive: [7] 0.019 | [8] 0.036 | [9] -0.1 | [4] 0.048 | [5] 0.018

RNF139 (UniProt Q8WU17)
inactive: erlotinib 0.015 | [1] 0.069 | [2] 0.017 | [6] 0.057 | [3] 0.014 | [4] 0.082 | [5] -0.067

RNF130 (UniProt Q86XS8)
inactive: erlotinib 0.047 | [2] 0.054 | [6] -0.107

RBMY1E (UniProt A6NEQ0)
inactive: erlotinib -0.238 | [2] 0.06 | [6] -0.003 | [3] -0.044 | [4] -0.072 | [5] -0.099

RNF13 (UniProt O43567)
inactive: [7] -0.1 | [1] 0.027 | [8] -0.046 | [6] 0.031 | [9] -0.021 | [4] 0.004 | [5] -0.011

RHD (UniProt Q02161)
inactive: erlotinib -0.07 | [7] 0.036 | [2] -0.05 | [8] 0.106 | [9] -0.148 | [4] -0.017 | [5] 0.008

RCBTB1 (UniProt Q8NDN9)
inactive: erlotinib 0.148 | [1] -0.063 | [2] -0.098 | [6] -0.245

RC3H2 (UniProt Q9HBD1)
inactive: [1] -0.191 | [4] -0.201 | [5] 0.126

2 entries drawn at random from those above, as already listed:
RNF13 (UniProt O43567)
inactive: [7] -0.1 | [1] 0.027 | [8] -0.046 | [6] 0.031 | [9] -0.021 | [4] 0.004 | [5] -0.011

RC3H2 (UniProt Q9HBD1)
inactive: [1] -0.191 | [4] -0.201 | [5] 0.126

Continuation:

RLIM (UniProt Q9NVW2)
inactive: [7] -0.598 | [8] 0.109 | [3] 0.017 | [9] -0.049 | [4] 0.171 | [5] 0.103
